# Paper PMC11157265
# Results are given in words; binding and its absence hold for the method and conditions named. Where a sequence is shown, tags or fusion partners need not be part of it.
# B1: PduL (Citrobacter freundii), His-tag cleaved (enzyme, UniProt B1VB71 1-210)
# chain: MDKQQLETTVTKVLDEMRERPIPLGISNRHIHLCAEDYDRLFPNHPISEKKELLQPGQYAADQTVTLVGPKGQLKNVRLLGPLRSTSQVEISRTDARTLGIAAPLRMSGSIEGTPGVRLISPFAELDLASGVIVAQRHIHMSPLDALILRVSHGDKVSVAINGDERRLIFDNVAVRVSPDMRLEMHIDTDEANAAGADNPQAFATLVSPR
# Target: PduA_GGSST (PduA with a 30 residue C-terminal extension, six repeats of GGSST) (C. freundii)
# Test: native gel or EMSA; band shift on native gel run at pH 9.5 instead of pH 8.5; PduL added to PduA, A63R or A^GGSST; both purified
binder,measurement,value
B1,binding,no binding
